Data on three molecules can be found in patent CN109988240A.

Amino acid sequences for entries named in this document (tags omitted). Residues count along the entry.
UniProt P51654, residues 25-559: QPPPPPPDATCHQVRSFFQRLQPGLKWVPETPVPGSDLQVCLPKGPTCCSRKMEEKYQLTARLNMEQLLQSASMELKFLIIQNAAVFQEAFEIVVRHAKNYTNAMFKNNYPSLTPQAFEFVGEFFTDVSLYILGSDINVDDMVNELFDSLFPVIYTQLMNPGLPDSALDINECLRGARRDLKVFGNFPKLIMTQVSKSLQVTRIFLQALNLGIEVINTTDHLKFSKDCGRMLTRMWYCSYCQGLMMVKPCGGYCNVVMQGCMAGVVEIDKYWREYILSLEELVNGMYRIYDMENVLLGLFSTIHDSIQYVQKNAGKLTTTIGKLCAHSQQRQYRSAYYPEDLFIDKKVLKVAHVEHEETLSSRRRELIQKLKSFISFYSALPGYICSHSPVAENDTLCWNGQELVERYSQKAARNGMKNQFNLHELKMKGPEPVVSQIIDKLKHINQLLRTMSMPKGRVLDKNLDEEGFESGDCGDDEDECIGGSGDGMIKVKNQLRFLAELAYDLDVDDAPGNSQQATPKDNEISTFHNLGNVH

Assay [1] addresses 人GPC-3抗原 (磷脂酰肌醇蛋白聚糖3, Glypican-3) (human) (UniProt P51654). The experiment in a line: indirect ELISA, GPC-3 antigen coated at 0.2 μg/ml.
The target is the same in assay [2]. The experiment in a line: indirect ELISA on coated GPC-3, goat anti-human IgG-HRP detection.

These are yes or no findings as the source states them, for the method shown. Some binding calls cover weakened binding; strength is not graded here.

B1: 鼠单克隆抗体GPC3#4(杂交瘤细胞株DWX-1分泌) (antibody, V domains shown)
VH: QVQLQQSGAELVRPGAPVTLSCKASGYTFTDYEMHWVKQTPVNGLEWIGAIDPQTGNTAFNQKFKGKAILTADKSSSTAYMEVRSLTSEGSAVYYCTRFYSLTYWGQGTLVTVSA
VL: DVLMTQVPLSLPVSLGDQASISCRSSQSIVHSNGNTYLQWYLQKPGQSPKLLIYKVSNRFSGVPDRFSGSGSGTYFTLKISRVEAEDLGVYYCFQGSHFPYAFGGGTKLEIK
With B1, the binding result in assay [1] was “binds”.

B2: 人源化抗体AB13E3 (antibody, V domains shown)
VH: QVQLVQSGAEVKKPGASVKVSCKASGYTFTDYEMHWVKQAPGQGLEWIGAIDPQTGNTAFNQKFKGRVTLTRDKSSSTVYMELSSLRSEDTAVYYCTRFYSLTYWGQGTLVTVSS
VL: DVLMTQSPLSLPVTLGQPASISCRSSQSIVHSNGNTYLQWYLQRPGQSPKLLIYKVSNRFSGVPDRFSGSGSGTYFTLKISRVEAEDVGVYYCFQGSHFPYAFGGGTKVEIK
Turning to B2, the binding result in assay [2] was “binds”.

B3: 人源化抗体AB13E4 (antibody, V domains shown)
VH: QVQLVQSGAEVVKPGASVKLSCKASGYTFTDYEMHWVKQTPGQGLEWIGAIDPQTGNTAFNQKFKGRATLTRDKSSSTAYMEVSSLRSEGTAVYYCTRFYSLTYWGQGTLVTVSS
VL: DVLMTQSPLSLPVTLGQPASISCRSSQSIVHSNGNTYLQWYLQKPGQSPKLLIYKVSNRFSGVPDRFSGSGSGTYFTLKISRVEAEDVGVYYCFQGSHFPYAFGGGTKLEIK
For the molecule B3, the binding result in assay [2] is reported as “binds”.
